Measurements published in PubChem BioAssay AID2685 (National Center for Advancing Translational Sciences (NCATS), 2010).
The whole screen tested about 320,000 compounds, of which about 2,100 (0.66%) were called active. Calls come from the whole dose curve; as a rule, active = well fitted inhibition curve with a large enough effect in the signal ratio, with a control signal flat (not every such curve was filed as active); inconclusive = small, poorly fitted or top-dose-only effect, or effect the other way, or a change in a side signal; inactive = flat fitted curve, though single readings scatter; the % refers to the signal ratio. The inconclusive results got no clear call from the source. Potencies beside an inconclusive call are fits to weak or partial responses and may not hold up.

Test: qHTS Assay for Lipid Storage Modulators in Drosophila S3 Cells
Settings: BODIPY lipid droplet fluorescence, 18-24 h, cells fed with added oleic acid; lipid storage change, negative = inhibition: at 46.1 µM (top of the series) unless noted
In short: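 Drosophila S3 cells loaded with oleic acid (400 uM, as added) and compounds at several concentrations; lipid droplets imaged by 488-nm laser-scanning cytometry, 500–530 nm intensity and object ratio to cell channel. Percent activity normalized to 20 uM Triacsin C.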
% is set by controls: 0 for no effect and ±100 for the full control effect; potency is the fitted concentration of half-maximal effect.

Lipid storage change, negative = inhibition, inconclusive:
CCOC(=O)C1=C(C)N(c2ccc(OC)cc2)C(=O)/C1=C\c1cccs1 21%, CC(=O)Nc1ccc(SCC(=O)N(CCC#N)c2ccc(C)cc2)cc1 -0.0141%, CCOc1ccc(CCNC(=O)COC(=O)C2CCN(c3ccc(C(F)(F)F)cn3)CC2)cc1OCC -0.505%, CCCCNC(=O)Nc1nnc(-c2ccc(Cl)cc2)o1 -11.4%, O=S(=O)(NC1=NCCCCC1)c1ccc2ccccc2c1 41.4% [activator], Nc1ccc(C(=O)OCC(=O)Nc2ccc3c(c2)OCO3)cc1[N+](=O)[O-] -26.4%, Cc1cc(C(=O)N2C(C)CCCC2C)no1 (stereo unspecified) -39.1%, CC1CCN(CC(=O)NC2CCCCC2)CC1 2.15%, Cn1c(=O)c2c3c(sc2n2c(SCc4ccc5c(c4)OCO5)nnc12)COC(C)(C)C3 20.6%, CC1CCCN(C(=O)c2ccc3c(c2)C(=O)N(CCC2=CCCCC2)C3=O)C1 (stereo unspecified) 6.94%, CC1CN(Cc2cnc(Cl)s2)CC(C)O1 (stereo unspecified) -19%, CCN(CCn1cccn1)C(=O)c1ccc2nc(Cc3ccc(OC)cc3)oc2c1 -1.5%, COc1ccccc1C(=O)NC(=O)CSc1nncn1C 49.2% [at 0.0737 µM], Cc1ccc(NC(=O)COC(=O)c2ccc(S(=O)(=O)N3CCCC3)cc2)cc1, CC(=O)Oc1ccc(Cl)cc1/C=C/c1ccc2ccccc2n1 -9.55%

Potency, inconclusive:
CC1CN(S(=O)(=O)c2ccc(Cl)c(S(=O)(=O)N3CC(C)OC(C)C3)c2)CC(C)O1 (stereo unspecified) 29.1 µM [falling, single point], Cc1ccc(S(=O)(=O)N2CCN(C(=O)COC(=O)Cc3ccc(Cl)cc3)CC2)c(C)c1 23.1 µM [activator, single point], O=C(NCC1CCCCC1)c1ccc(Br)o1 29.1 µM [falling, single point], COc1cc2c(cc1OC)C(C(=O)N1CCN(c3ccccc3)CC1)C(c1cccs1)N(C)C2=O (stereo unspecified) 0.731 µM [falling, full curve], Cc1ccc(/C=C2\SC(=O)N(CCC(=O)N3CCN(C)CC3)C2=O)cc1 0.146 µM [falling, full curve, poor fit], CC(=O)NCC(=O)N(c1c(C)n(C)n(-c2ccccc2)c1=O)C1(C(=O)NC2CCCC2)CCCCC1 4.61 µM [falling, single point]
